Measurements published in the supplement of paper PMC4604168 (melanoma cell lines).
This is one part of the list. Repeats are few or missing, and single values can be far off.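 Cells were imaged in 1,536-well plates, and nuclei stained with an antibody against cleaved PARP were counted against all DNA-stained nuclei to give the apoptosis fraction. Screening doses were chosen to leave most cells alive, and resting and induced cleaved-PARP levels differ strongly between cell lines.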

These compounds were tested on CBRC014 (line from a melanoma biopsy) (assay: cleaved PARP positive nuclei fraction relative to DMSO control; melanoma cells; higher = more apoptosis). Settings: library dose: low library concentration; 72 h.

Row | Structure (SMILES) | cleaved PARP positive nuclei fraction [%]
1 | Cc1cc(Nc2cc(N3CCN(C)CC3)nc(Sc3ccc(NC(=O)C4CC4)cc3)n2)n[nH]1 [Tozasertib] + Cc1ccc(NC(=O)c2cccc(N(C)C)c2)cc1NC(=O)c1ccc(O)cc1 [ZM336372] (first compound 0.006 µM, partner dose 2 µM) | 110
2 | CC[C@]1(O)C[C@H]2CN(CCc3c([nH]c4ccccc34)[C@@](C(=O)OC)(c3cc4c(cc3OC)N(C=O)[C@H]3[C@@](O)(C(=O)OC)[C@H](OC(C)=O)[C@]5(CC)C=CCN6CC[C@]43[C@@H]65)C2)C1 [vincristine] + CC1(C)NC(=O)N(c2ccc([N+](=O)[O-])c(C(F)(F)F)c2)C1=O [nilutamide] (first compound 0.0001 µM, partner dose 1 µM) | 109
3 | N#CC[C@H](C1CCCC1)n1cc(-c2ncnc3[nH]ccc23)cn1 [ruxolitinib] + CO[C@@H]1[C@H](N(C)C(=O)c2ccccc2)C[C@H]2O[C@]1(C)n1c3ccccc3c3c4c(c5c6ccccc6n2c5c31)C(=O)NC4 [Midostaurin] (first compound 1 µM, partner dose 0.08 µM) | 91.8
4 | CCCCCCCCCCCCCCCCCCOP(=O)([O-])OC1CC[N+](C)(C)CC1 [Perifosine] + COc1cc2c(Oc3ccc4[nH]c(C)cc4c3F)ncnc2cc1OCCCN1CCCC1 [cediranib] (first compound 0.4 µM, partner dose 0.4 µM) | 86.8
5 | N#CC[C@H](C1CCCC1)n1cc(-c2ncnc3[nH]ccc23)cn1 [ruxolitinib] + COc1cc2c(Oc3ccc4[nH]c(C)cc4c3F)ncnc2cc1OCCCN1CCCC1 [cediranib] (first compound 1 µM, partner dose 0.4 µM) | 69.3
6 | O=C(/C=C/c1cccnc1)NCCCCC1CCN(C(=O)c2ccccc2)CC1 + O=C(O)c1ccc(-c2c[nH]c3ncc(-c4ccccc4)cc23)cc1C1CCCC1 [GSK650394] (first compound 0.01 µM, partner dose 0.16 µM) | 192
7 | Cc1cc(Nc2cc(N3CCN(C)CC3)nc(Sc3ccc(NC(=O)C4CC4)cc3)n2)n[nH]1 [Tozasertib] + NCC(=O)Nc1ccc(-n2nc(C(F)(F)F)cc2-c2ccc3c(ccc4ccccc43)c2)cc1 [OSU03012] (first compound 0.006 µM, partner dose 1 µM) | 93.5
8 | Cc1cn(-c2cc(NC(=O)c3ccc(C)c(Nc4nccc(-c5cccnc5)n4)c3)cc(C(F)(F)F)c2)cn1 [nilotinib] + CO[C@@H]1[C@H](N(C)C(=O)c2ccccc2)C[C@H]2O[C@]1(C)n1c3ccccc3c3c4c(c5c6ccccc6n2c5c31)C(=O)NC4 [Midostaurin] (first compound 0.2 µM, partner dose 0.08 µM) | 103
9 | Cc1ccc(Nc2nccc(N(C)c3ccc4c(C)n(C)nc4c3)n2)cc1S(N)(=O)=O [Pazopanib] + CN(NC(=O)CC(=O)NN(C)C(=S)c1ccccc1)C(=S)c1ccccc1 [STA4783] (first compound 0.4 µM, partner dose 0.006 µM) | 520
10 | COc1cc([C@@H]2c3cc4c(cc3[C@@H](O[C@@H]3O[C@@H]5CO[C@@H](C)O[C@H]5[C@H](O)[C@H]3O)[C@H]3COC(=O)[C@H]23)OCO4)cc(OC)c1O [etoposide] + Cc1ccc(NC(=O)c2cccc(N(C)C)c2)cc1NC(=O)c1ccc(O)cc1 [ZM336372] (first compound 0.02 µM, partner dose 2 µM) | 877
11 | O=C(/C=C/c1cccnc1)NCCCCC1CCN(C(=O)c2ccccc2)CC1 + CN(NC(=O)CC(=O)NN(C)C(=S)c1ccccc1)C(=S)c1ccccc1 [STA4783] (first compound 0.01 µM, partner dose 0.006 µM) | 160

The compounds below were run on CBRC016 (line from a melanoma biopsy) in the same assay as above. Settings: library dose: low library concentration; 72 h.

Row | Structure (SMILES) | cleaved PARP positive nuclei fraction [%]
12 | O=c1[nH]nc(Sc2ncc([N+](=O)[O-])s2)n1-c1ccc2c(c1)OCCO2 + COc1cc2c(Oc3ccc4[nH]c(C)cc4c3F)ncnc2cc1OCCCN1CCCC1 [cediranib] (first compound 0.2 µM, partner dose 0.4 µM) | 69.7
13 | Cc1cc(Nc2cc(N3CCN(C)CC3)nc(Sc3ccc(NC(=O)C4CC4)cc3)n2)n[nH]1 [Tozasertib] + NC(=O)Nc1cc(-c2cccc(F)c2)sc1C(=O)N[C@H]1CCCNC1 [AZD7762] (first compound 0.006 µM, partner dose 0.02 µM) | 168
14 | Cc1cn(-c2cc(NC(=O)c3ccc(C)c(Nc4nccc(-c5cccnc5)n4)c3)cc(C(F)(F)F)c2)cn1 [nilotinib] + O=C(Nc1cccc(Cl)c1)Nc1ncc(CCNc2ncnc3ccsc23)s1 [SNS314] (first compound 0.2 µM, partner dose 0.0008 µM) | 998
15 | CCCCCCCCCCCCCCCCCCOP(=O)([O-])OC1CC[N+](C)(C)CC1 [Perifosine] + CC(C)(C)c1cnc(CSc2cnc(NC(=O)C3CCNCC3)s2)o1 [SNS-032] (first compound 0.4 µM, partner dose 0.01 µM) | 190
16 | O=C(Nc1cc(C(F)(F)F)cc(C(F)(F)F)c1)c1cc(Cl)ccc1O + NCC(=O)Nc1ccc(-n2nc(C(F)(F)F)cc2-c2ccc3c(ccc4ccccc43)c2)cc1 [OSU03012] (first compound 0.016 µM, partner dose 1 µM) | 128
17 | CCCCCCCCCCCCCCCCCCOP(=O)([O-])OC1CC[N+](C)(C)CC1 [Perifosine] + O=C(O)c1ccc(-c2c[nH]c3ncc(-c4ccccc4)cc23)cc1C1CCCC1 [GSK650394] (first compound 0.4 µM, partner dose 0.16 µM) | 61.8
18 | O=C(Nc1cc(C(F)(F)F)cc(C(F)(F)F)c1)c1cc(Cl)ccc1O + C[C@@H]1CCN(C(=O)CC#N)C[C@@H]1N(C)c1ncnc2[nH]ccc12 [CP690550] (first compound 0.016 µM, partner dose 1 µM) | 45.9
19 | CC[C@]1(O)C[C@H]2CN(CCc3c([nH]c4ccccc34)[C@@](C(=O)OC)(c3cc4c(cc3OC)N(C=O)[C@H]3[C@@](O)(C(=O)OC)[C@H](OC(C)=O)[C@]5(CC)C=CCN6CC[C@]43[C@@H]65)C2)C1 [vincristine] + CO[C@@H]1[C@H](N(C)C(=O)c2ccccc2)C[C@H]2O[C@]1(C)n1c3ccccc3c3c4c(c5c6ccccc6n2c5c31)C(=O)NC4 [Midostaurin] (first compound 0.0001 µM, partner dose 0.08 µM) | 227
20 | COc1cc([C@@H]2c3cc4c(cc3[C@@H](O[C@@H]3O[C@@H]5CO[C@@H](C)O[C@H]5[C@H](O)[C@H]3O)[C@H]3COC(=O)[C@H]23)OCO4)cc(OC)c1O [etoposide] + OCCn1cc(-c2cnc3nnn(Cc4ccc5ncccc5c4)c3n2)cn1 [PF04217903] (first compound 0.02 µM, partner dose 1 µM) | 129
21 | CCCCCCCCCCCCCCCCCCOP(=O)([O-])OC1CC[N+](C)(C)CC1 [Perifosine] + C[C@@H]1CCN(C(=O)CC#N)C[C@@H]1N(C)c1ncnc2[nH]ccc12 [CP690550] (first compound 0.4 µM, partner dose 1 µM) | 32.7
22 | O=C(/C=C/c1cccnc1)NCCCCC1CCN(C(=O)c2ccccc2)CC1 + Cc1ccc(NC(=O)c2cccc(N(C)C)c2)cc1NC(=O)c1ccc(O)cc1 [ZM336372] (first compound 0.01 µM, partner dose 2 µM) | 909
23 | Cc1ccc(Nc2nccc(N(C)c3ccc4c(C)n(C)nc4c3)n2)cc1S(N)(=O)=O [Pazopanib] + COc1cc(Nc2ncc(F)c(Nc3ccc4c(n3)NC(=O)C(C)(C)O4)n2)cc(OC)c1OC [Tamatinib] (first compound 0.4 µM, partner dose 0.4 µM) | 96.8
24 | N#CC[C@H](C1CCCC1)n1cc(-c2ncnc3[nH]ccc23)cn1 [ruxolitinib] + COc1cc(Nc2ncc(F)c(Nc3ccc4c(n3)NC(=O)C(C)(C)O4)n2)cc(OC)c1OC [Tamatinib] (first compound 1 µM, partner dose 0.4 µM) | 60.4
25 | COc1cc([C@@H]2c3cc4c(cc3[C@@H](O[C@@H]3O[C@@H]5CO[C@@H](C)O[C@H]5[C@H](O)[C@H]3O)[C@H]3COC(=O)[C@H]23)OCO4)cc(OC)c1O [etoposide] + CN(NC(=O)CC(=O)NN(C)C(=S)c1ccccc1)C(=S)c1ccccc1 [STA4783] (first compound 0.02 µM, partner dose 0.006 µM) | 137
26 | O=C(Nc1cc(C(F)(F)F)cc(C(F)(F)F)c1)c1cc(Cl)ccc1O + O=C(Nc1cccc(Cl)c1)Nc1ncc(CCNc2ncnc3ccsc23)s1 [SNS314] (first compound 0.016 µM, partner dose 0.0008 µM) | 165
27 | Cc1cn(-c2cc(NC(=O)c3ccc(C)c(Nc4nccc(-c5cccnc5)n4)c3)cc(C(F)(F)F)c2)cn1 [nilotinib] + NC(=O)Nc1cc(-c2cccc(F)c2)sc1C(=O)N[C@H]1CCCNC1 [AZD7762] (first compound 0.2 µM, partner dose 0.02 µM) | 89.2
28 | Cc1cn(-c2cc(NC(=O)c3ccc(C)c(Nc4nccc(-c5cccnc5)n4)c3)cc(C(F)(F)F)c2)cn1 [nilotinib] + O=C(O)c1ccc(-c2c[nH]c3ncc(-c4ccccc4)cc23)cc1C1CCCC1 [GSK650394] (first compound 0.2 µM, partner dose 0.16 µM) | 104

Quoted at random: 2 records from the list
Row | Structure (SMILES) | cleaved PARP positive nuclei fraction [%]
17 | CCCCCCCCCCCCCCCCCCOP(=O)([O-])OC1CC[N+](C)(C)CC1 [Perifosine] + O=C(O)c1ccc(-c2c[nH]c3ncc(-c4ccccc4)cc23)cc1C1CCCC1 [GSK650394] (first compound 0.4 µM, partner dose 0.16 µM) | 61.8
13 | Cc1cc(Nc2cc(N3CCN(C)CC3)nc(Sc3ccc(NC(=O)C4CC4)cc3)n2)n[nH]1 [Tozasertib] + NC(=O)Nc1cc(-c2cccc(F)c2)sc1C(=O)N[C@H]1CCCNC1 [AZD7762] (first compound 0.006 µM, partner dose 0.02 µM) | 168
